Patent US20050158425A1, “Thin mouthfeel calcium-fortified beverage containing calcium lactate gluconate citrate” (PURAC BIOCHEM BV, priority 2003, published 2005)

What was measured:
[1] = Triangle tests in mineral water with test panels; details: test panels of 19 and 12 persons
[2] = Comparative taste tests by a test panel; details: compared to a blank; for taste, calcium lactate gluconate sample vs calcium lactate gluconate citrate sample: mineral water containing 10% RDI calcium/serving

Row | SMILES | triangle test, difference from mineral water [1] | taste, calcium lactate gluconate citrate sample vs calcium lactate gluconate sample ([2]; apple juice containing 30% RDI calcium/serving) | taste, calcium lactate gluconate sample vs calcium lactate gluconate citrate sample [2]
1 | O=C(O)[C@H](O)[C@@H](O)[C@H](O)[C@H](O)CO.O=C([O-])CC(O)(CC(=O)[O-])C(=O)O.[Ca+2] [calcium gluconate citrate] | None of the tests showed significant difference | – | –
2 | CC(O)C(=O)O.O=C(O)[C@H](O)[C@@H](O)[C@H](O)[C@H](O)CO.O=C([O-])CC(O)(CC(=O)[O-])C(=O)O.[Ca+2] [calcium lactate gluconate citrate] | – | better in taste | no difference in taste
3 | CC(O)C(=O)[O-].O=C([O-])[C@H](O)[C@@H](O)[C@H](O)[C@H](O)CO.[Ca+2] [Calcium lactate gluconate, calcium lactate gluconate] | None of the tests showed significant difference | – | no difference in taste
